# The other results are listed elsewhere or left out.
# B1: il10ra_site1_sap_19_mot_HHH_b2_02567_af2_000000093_0001_41_57_H_._HHH_b2_04968_af2_0001_0000600030_0000002_0_0001 (protein)
# chain: SSSSSDAEERVEELLEEAEQVEDEHEFAQILFEAMRLAHENNDQELFKEILRVAAELLDSSSSSS
# B2: il10ra_site1_normal_mot_HHH_b1_05357_000000034_0001_23_39_H_._HHH_b2_06427_0001_0000400012_0000001_0_af2pred_0001 (protein)
# chain: SSSSSSDVEEEVEELLEEAKQIDDQEEAAYLLTRAYALANQLNDPELEEEVRRVAKELSSSSSSS
# B3: il10ra_site1_normal_mot_HHH_b1_05326_000000242_0001_1_20_H_._HHH_b2_01301_0001_0000200014_0000001_0 (protein)
# chain: SSSSDEELQQVLELSREAFRLALRGNEEEARRVAEEALRLAEEAGDEQLFRVIEDQLRVRSSSSS
# B4: il10ra_site1_sap_21_mot_HHH_b1_03314_af2_000000278_0001_42_55_H_._HHH_b1_07761_af2_0001_0000300012_0000001_0_0001_af2pred_0001 (protein)
# chain: SSSSDIRERVLRLIREILELLRRGNEEEARELLEEAQELAEEGNNPLLRRSLEALERDLNSSSSS
# B5: il10ra_site1_sap_19_mot_HHH_b2_03220_af2_000000223_0001_23_40_H_._HHH_b2_08011_af2_0001_0000900026_0000002_0_0001 (protein)
# chain: SSSSDEEYLEMAIRFAEWLAEAGDPEAAERMIEAAIDLAKQLGDEELEEELRELLEELRRESSSS
# B6: il10ra_site1_sap_11_mot_HHH_b1_05757_000000171_0001_42_57_H_._HHH_b1_08742_af2_0001_0000300003_0000001_0_0001_af2pred_0001 (protein)
# chain: SSSSSEDEERASRLMREVLEALQRGDEERLEELLKELEELAEENNDELVKRYVETIKQMNSSSSS
# B7: il10ra_site1_normal_mot_HHH_b2_01649_af2_000000191_0001_40_56_H_._HHH_b2_05814_0001_0000400020_0000001_0_af2pred_0001 (protein)
# chain: SSSSSIKIAARFLLRDARAATTEELRKQVKYAIEALLELVERLNDEEAHEILKEAEELLRSSSSS
# B8: il10ra_site1_sap_20_mot_HHH_b1_06804_000000054_0001_40_54_H_._HHH_b1_05559_0001_0000800044_0000001_0_0001 (protein)
# chain: SSSSQERFEEAERVIEQVIRLLEEGNPEEARRLIEELEELAEELNDIALRSAVEALKRSVDSSSS
# B9: il10ra_site1_normal_mot_HHH_b2_05813_000000266_0001_1_19_H_._HHH_b1_05552_af2_0001_0000600041_0000001_0 (protein)
# chain: SSSSSELEEEFFQIAVEIQRLLDENDHEEAEKLVKELIEELERLNNERLLFAAEALERRIKSSSS
# B10: il10ra_site1_normal_mot_HHH_b2_00277_af2_000000172_0001_1_17_H_._HHH_b2_06595_0001_0000300022_0000002_0 (protein)
# chain: SSSSSDVEEEIEELLEEAKRIEDPEEAKEVILRAAALAARLRDPHLSFLVIEVYAELFQRSSSSS
# B11: il10ra_site1_sap_21_mot_HHH_b1_05056_000000217_0001_1_20_H_._HHH_b1_07511_0001_0000400017_0000001_0_0001 (protein)
# chain: SSSSTAAEFLLRQALEAAELLLEQGDEEKAEWALEIVERLAKEANDPEALRLAEELLEELSSSSS
# B12: il10ra_site1_sap_24_mot_HHH_b2_04186_af2_000000278_0001_1_19_H_._HHH_b1_07341_af2_0001_0000600024_0000001_0_0001 (protein)
# chain: SSSSDEEELERLLEEIEQAVEEGDREKFARLVLELLRLIYELGDKEMLRRLWELIKKFAEGSSSS
# B13: il10ra_site1_normal_mot_HHH_b1_04065_000000255_0001_41_56_H_._HHH_b1_07236_0001_0000100003_0000001_1 (protein)
# chain: SSSSDEEYRREVEELLEEAEQIEDPHERAEVLARALRRAYEGRDPELFRLVDRVAIELYFSSSSS
# B14: il10ra_site1_sap_27_mot_HHH_b1_05056_000000217_0001_1_20_H_._HHH_b2_06141_0001_0000500014_0000001_0_0001 (protein)
# chain: SSSSDLVEQAARFARALARAAGDEEAEEKVQEVEEALERGEISEQEALELLARIMREINKSSSSS
# B15: il10ra_site1_normal_mot_HHH_b1_05056_000000217_0001_1_20_H_._HHH_b2_06393_af2_0001_0000900018_0000001_0 (protein)
# chain: SSSSSDEEDEERVEELLEEAKHVPDPHEVSRILAEALRLAFELQDPELLRAVWEVVRELNSSSSS
# B16: il10ra_site1_sap_24_mot_42f8b9a235e54c912819b8ab3aebd5a2_0001_af2_000000295_0001_34_48_H_._104f9518c2e4434ea70fdb64017d7000_0001_af2_0001_0000500026_0000001_0_0 … (protein)
# chain: SSSSDEERLEELLERAEELLKEGNPEEAREVLYEATHLALQLSDKEVLRELWKLFREVAGSSSSS
# B17: il10ra_site1_normal_mot_HHH_b2_02337_000000026_0001_38_52_H_._HHH_b2_04211_af2_0001_0000300011_0000002_0 (protein)
# chain: SSSSDEEREEIEELIKEFEELLERGDREEAVRVVTEALQFALKLGDQELLKRIWELVKSLSSSSS
# B18: il10ra_site1_normal_mot_HHH_b2_07521_000000141_0001_20_37_H_._HHH_b2_01325_0001_0000100016_0000001_1_af2pred_0001 (protein)
# chain: SSSSDDEEAVRLSLRFARFLAEQGDPEAARIIIKAAEEIARRGNNPELEEEVEEVLRELNSSSSS
# Biological target: il10ra, Q13651
# Assay: yeast display titration
row,Binder,apparent Kd
1,B1,inactive: no binding seen
2,B2,inactive: no binding seen
3,B3,inactive: no binding seen
4,B4,inactive: no binding seen
5,B5,inactive: no binding seen
6,B6,inactive: no binding seen
7,B7,inactive: no binding seen
8,B8,inactive: no binding seen
9,B9,inactive: no binding seen
10,B10,inactive: no binding seen
11,B11,inactive: no binding seen
12,B12,inactive: no binding seen
13,B13,inactive: no binding seen
14,B14,inactive: no binding seen
15,B15,inactive: no binding seen
16,B16,inactive: no binding seen
17,B17,inactive: no binding seen
18,B18,inactive: no binding seen

# Copied from the list.
# In apparent Kd, B15 is entered as inactive: no binding seen
# In apparent Kd, B18 is entered as inactive: no binding seen
